{"source": "PubChem BioAssay AID540256", "about": "(National Center for Advancing Translational Sciences (NCATS), 2011)", "note": "The whole screen tested about 300,000 compounds, of which about 3,700 (1.2%) were called active. Inconclusive results, whose numbers are uncertain, are shown with a selection of clear calls. Calls follow the shape of the full dose curve; tested in HEK293 cells. Potencies beside an inconclusive call are fits to weak or partial responses and may not hold up. % is scaled to controls: 0 for no effect and ±100 for the full control effect; potency is read from the fitted curve at half-maximal effect.", "data": [{"assay": "qHTS for Inhibitors of binding or entry into cells for Lassa Virus; also: nearly all actives have a fitted effect of over 50% in size", "conditions": "Lassa virus pseudotype entry inhibition, cell reporter; activity change, negative = inhibition: at 37.9 µM (top of the series) unless noted", "values": [{"smiles": "O=C(O)C1C2C=CC(O2)C1C(=O)NCCC1=CCCCC1", "note": "(centres undefined)", "activity change, negative = inhibition": "inactive: 3.13%"}, {"smiles": "COc1cc(C2NC(=S)NC(c3ccccc3)=C2C(C)=O)cc(Cl)c1OCC(=O)O", "note": "(centres undefined)", "Potency": "inconclusive: 29.1 µM [activator, single point]"}, {"smiles": "COc1cc(S(=O)(=O)NC2CCCCC2)ccc1F", "Potency": "inconclusive: 0.13 µM [inhibitor, full curve, poor fit]"}, {"smiles": "CC(C)(C)NC(=O)C(=O)NNC(=O)c1ccc(C(C)(C)C)cc1", "activity change, negative = inhibition": "inactive: -8.69%"}, {"smiles": "O=C(c1ccncc1)c1nccn1-c1ccccn1", "Potency": "inconclusive: 2.59 µM [activator, full curve, poor fit]"}, {"smiles": "CCOC(=O)c1c(C)n(-c2ccccc2)c2ccc(O)cc12", "activity change, negative = inhibition": "inactive: -18.1%"}, {"smiles": "CCOC(=O)N1CCN(C(=O)c2ccc(CN(c3ccccc3)S(C)(=O)=O)cc2)CC1", "Potency": "inconclusive: 10 µM [inhibitor, partial curve, poor fit]"}, {"smiles": "COc1ccc(S(=O)(=O)N(CCc2ccccc2)CC(=O)NCc2ccccc2)cc1", "Potency": "inconclusive: 10 µM [inhibitor, partial curve, poor fit]"}, {"smiles": "CCc1ccc(NC(=O)CC(c2cc(OC)c(OC)c(OC)c2)N2Cc3ccccc3C2=O)cc1", "note": "(centres undefined)", "activity change, negative = inhibition": "inactive: -10.7% [at 46.1 µM]"}, {"smiles": "Cc1ccc(NC(=O)c2cc(-c3ccc(C)o3)nc3ccccc23)nc1", "Potency": "inconclusive: 29.1 µM [inhibitor, partial curve, poor fit]"}, {"smiles": "O=[N+]([O-])c1ccc2[nH]c(O)c(N=NC(=S)NCC3CCCO3)c2c1", "note": "(centres undefined)", "activity change, negative = inhibition": "inactive: 11.1%"}, {"smiles": "COc1cccc2cc(C(=O)NC3CC4CCC3C4)oc12", "note": "(centres undefined)", "Potency": "inconclusive: 35.5 µM [inhibitor, single point]"}, {"smiles": "COc1ccccc1CNC(=O)CN1C(=O)CCc2cc(S(=O)(=O)N3CCCCC3)ccc21", "activity change, negative = inhibition": "inactive: 3.99% [at 46.1 µM]"}, {"smiles": "COc1ccc(C(=O)NCCn2cc(SCc3cccc(F)c3)c3ccccc32)cc1OC", "Potency": "inconclusive: 20 µM [inhibitor, single point]"}, {"smiles": "C/C(=N\\NC(=O)c1ccncc1)c1cccc(NC(=O)c2ccc(C(C)(C)C)cc2)c1", "Potency": "inconclusive: 35.5 µM [inhibitor, single point]"}, {"smiles": "N#Cc1cccc(C(c2nnnn2C2CCCC2)N2CCCCCC2)c1", "note": "(centres undefined)", "Potency": "inconclusive: 18.3 µM [inhibitor, single point]"}, {"smiles": "CCCN(CCC)CCNC(=O)Cn1cnc2sc(C)c(S(=O)(=O)N3CCC(C)CC3)c2c1=O", "Potency": "inconclusive: 31.6 µM [activator, single point]"}, {"smiles": "O=C1CC(N2CCC(c3nc4ccccc4o3)CC2)C(=O)N1c1ccc(Cl)c(C(F)(F)F)c1", "note": "(centres undefined)", "activity change, negative = inhibition": "inactive: -18.4%"}, {"smiles": "CCC(C)NCCOCCOc1ccc(Cl)cc1Br", "note": "(centres undefined)", "Potency": "inconclusive: 25.1 µM [inhibitor, single point]"}, {"smiles": "COc1ccc(/C=N/NC(=O)c2ccc(O)cc2)cc1CN1CCCc2ccccc21", "Potency": "inconclusive: 11.2 µM [inhibitor, partial curve, poor fit]"}, {"smiles": "Fc1ccc(-n2c(Cc3ccccc3)nnc2SCc2nc(-c3cccs3)no2)cc1", "activity change, negative = inhibition": "inactive: -19.3%"}, {"smiles": "Cc1cc(C)cc(NC(=O)C2CCCN2/C=C/C(=O)C(F)(F)F)c1", "note": "(centres undefined)", "activity change, negative = inhibition": "inactive: -1.85%"}, {"smiles": "CCN(CC)CCNC(=O)CS(=O)Cc1nc(-c2ccc(Cl)cc2)oc1C", "note": "(centres undefined)", "activity change, negative = inhibition": "inactive: 9.58%"}, {"smiles": "COc1cc(-c2nnc(SCc3cc(=O)oc4cc(C)ccc34)o2)cc(OC)c1OC", "activity change, negative = inhibition": "inactive: -12.1%"}, {"smiles": "CCn1ccc(C(=O)NC2=NCCS2)n1", "Potency": "inconclusive: 6.51 µM [activator, partial curve, poor fit]"}, {"smiles": "Cc1ccc(C(=O)Nc2ncc(Cc3ccc(F)cc3)s2)o1", "Potency": "inconclusive: 1.16 µM [activator, single point]"}, {"smiles": "O=C(c1ccccc1)N(C1=NCCCCS1)c1ccccc1", "Potency": "inconclusive: 3.55 µM [activator, single point]"}, {"smiles": "COc1cccc(CNC(=O)CC2C(=O)NCCN2Cc2ccoc2)c1OC", "note": "(centres undefined)", "activity change, negative = inhibition": "inactive: -9.53% [at 46.1 µM]"}, {"smiles": "CC(C)(C)c1ccc(/C=C/C(=O)Nc2ccncc2)cc1", "Potency": "inconclusive: 29.1 µM [inhibitor, single point]"}, {"smiles": "COc1ccccc1NC(=O)CN1CCC(c2nc3ccccc3[nH]2)CC1", "Potency": "inconclusive: 17.8 µM [inhibitor, single point]"}, {"smiles": "Cc1c(C(=O)NC(C)c2ccccc2)sc2ncnc(N(C)C3CCCCC3)c12", "note": "(centres undefined)", "Potency": "inconclusive: 14.1 µM [inhibitor, partial curve, poor fit]"}, {"smiles": "CC(C)C(=O)NCCc1c[nH]c2ccccc12", "activity change, negative = inhibition": "inactive: -1.95%"}, {"smiles": "Cc1ccc(-c2c(CN3CCN(c4cc(C)ccc4C)CC3)csc2C)cc1", "activity change, negative = inhibition": "inactive: 12.8% [at 46.1 µM]"}, {"smiles": "CN(C(=O)c1ccccc1OCc1ccc(F)cc1)c1c(N)n(Cc2ccccc2)c(=O)[nH]c1=O", "activity change, negative = inhibition": "inactive: 3.75%"}, {"smiles": "CCOC(=O)N1CCN(C(=O)c2ccc3c(c2)N(Cc2ccccc2F)C(=O)c2ccccc2S3=O)CC1", "note": "(centres undefined)", "activity change, negative = inhibition": "inactive: -5.46% [at 46.1 µM]"}, {"smiles": "O=C(COc1ccccc1Cl)N1CCc2ccccc21", "activity change, negative = inhibition": "inactive: -0.343%"}, {"smiles": "CCOc1ccc(NS(=O)(=O)c2ccc(C(=O)N(C)CCc3ccc(OC)c(OC)c3)cc2)cc1", "Potency": "inconclusive: 11.2 µM [inhibitor, single point]"}, {"smiles": "CCOC(=O)c1c(NC(=O)COC(=O)c2ccc(C)s2)sc2c1CC(C)(C)NC2(C)C", "Potency": "inconclusive: 1.26 µM [activator, single point]"}, {"smiles": "Cc1cc(Nc2ccccc2)nc(N)n1", "Potency": "inconclusive: 29.1 µM [activator, single point]"}, {"smiles": "N#Cc1cc([N+](=O)[O-])ccc1Oc1cccc(/C=N/NC(=O)c2ccc(Cl)cc2)c1", "Potency": "inconclusive: 0.517 µM [inhibitor, single point]"}, {"smiles": "CCOc1ccc2c(c1)c1nnc(SCC3CCCO3)nc1n2C", "note": "(centres undefined)", "Potency": "inconclusive: 13 µM [inhibitor, single point]"}, {"smiles": "COc1ccc(CCC(=O)Nc2cc3c4c(c2)CC(=O)N4CCC3)cc1", "activity change, negative = inhibition": "inactive: -4.86% [at 46.1 µM]"}, {"smiles": "O=S(=O)(c1ccccc1F)N1CCN(c2nc3ccccc3s2)CC1", "Potency": "inconclusive: 7.08 µM [activator, partial curve, poor fit]"}, {"smiles": "O=C(NC1CCN(C(=O)N2c3ccccc3Sc3ccccc32)CC1)c1ccccc1Cl", "activity change, negative = inhibition": "inactive: -14.8%"}, {"smiles": "C=CCO/N=C(/C)c1ccc(Oc2cnccn2)cc1", "activity change, negative = inhibition": "inactive: -1.06%"}, {"smiles": "COc1ccc2cc(CN(Cc3ccco3)C(=S)NCC3CCCO3)c(=O)[nH]c2c1", "note": "(centres undefined)", "Potency": "inconclusive: 6.31 µM [inhibitor, full curve, poor fit]"}, {"smiles": "O=C(COC(=O)c1ccc(Cl)nc1)NC(=O)c1ccc(OC(F)F)cc1", "activity change, negative = inhibition": "inactive: -5.34%"}, {"smiles": "O=C1N(c2cccc3ccccc23)C(c2ccccc2)N2CCCN12", "note": "(centres undefined)", "Potency": "inconclusive: 17.8 µM [activator, partial curve, poor fit]"}, {"smiles": "CCN1C(=O)/C(=C\\C=C\\c2ccccc2[N+](=O)[O-])SC1=S", "Potency": "inconclusive: 11.2 µM [inhibitor, single point]"}, {"smiles": "O=C(Nc1ccc(OCC(=O)N2CCC(Cc3ccccc3)CC2)cc1)c1ccco1", "activity change, negative = inhibition": "inactive: -18.6%"}, {"smiles": "Cc1ccccc1OCC(=O)Nc1ccc(C(=O)Nc2ccccc2C(=O)O)cc1", "activity change, negative = inhibition": "inactive: 5.17% [at 46.1 µM]"}, {"smiles": "Cc1ccc(S(=O)(=O)NCC(=O)NCC(=O)NCCc2ccccc2F)cc1C", "activity change, negative = inhibition": "inactive: 14.1%"}, {"smiles": "O=C(COC(=O)C12CC3CC(CC(C3)C1)C2)Nc1ccc2[nH]c(=O)[nH]c2c1", "Potency": "inconclusive: 6.31 µM [inhibitor, single point]"}, {"smiles": "C#CC[N+](C)(C)CCCCCCCCCC", "activity change, negative = inhibition": "inactive: -29.1%"}, {"smiles": "O=C(NCc1cccs1)c1ccc(CS(=O)(=O)c2ccc(Cl)cc2)o1", "Potency": "active: 11.6 µM"}, {"smiles": "CC(=O)Nc1ccc(S(=O)(=O)N2CCC(c3ccncc3)CC2)cc1", "activity change, negative = inhibition": "inactive: -6.68% [at 46.1 µM]"}, {"smiles": "O=C1CSC2=NCN(c3ccc4c(c3)OCO4)CN12", "activity change, negative = inhibition": "inactive: 24.2%"}, {"smiles": "COc1cccc(=O)c2c(C)n(C)c(C)c12", "activity change, negative = inhibition": "inactive: -3.31%"}, {"smiles": "c1ccc2c(c1)nc1n2CCN1CCN1CCCC1", "activity change, negative = inhibition": "inactive: -23%"}, {"smiles": "COC1C=CC=C(C)C(=O)NC2=CC(=O)C(N)=C(CC(C)CC(OC)C(O)C(C)C=C(C)C1OC(N)=O)C2=O", "note": "(centres undefined)", "Potency": "active: 0.447 µM"}, {"smiles": "CC(C)n1nc(C(=O)OCn2nnc3ccccc3c2=O)c2ccccc2c1=O", "activity change, negative = inhibition": "inactive: 8.76%"}, {"smiles": "COc1ccc(C2CCCN2C(=S)Nc2cccc(Cl)c2C)cc1OC", "note": "(centres undefined)", "activity change, negative = inhibition": "inactive: -6.42% [at 46.1 µM]"}, {"smiles": "O=C(Nc1nc2nc(-c3ccccc3)cc(-c3ccccc3)n2n1)c1ccco1", "Potency": "inconclusive: 1.16 µM [activator, single point]"}, {"smiles": "Cc1ccc(CCNC(=O)c2coc3nc4ccccc4nc23)cc1", "Potency": "inconclusive: 35.5 µM [inhibitor, single point]"}, {"smiles": "O=C(NCCc1ccc(F)cc1)c1ccc2c(=O)n3c(nc2c1)CCC3", "Potency": "inconclusive: 0.794 µM [activator, full curve, poor fit]"}, {"smiles": "O=C(c1cc(C(=O)NCc2ccccc2)c(=O)n(Cc2ccccc2)c1)c1cc(Cl)ccc1O", "Potency": "inconclusive: 0.447 µM [activator, partial curve, poor fit]"}, {"smiles": "COc1ccc(-c2noc(Cn3cc(S(=O)(=O)N4CCCC4)ccc3=O)n2)cc1", "activity change, negative = inhibition": "inactive: 12.7%"}, {"smiles": "COCc1[nH]nc2c1C(c1ccc(F)cc1F)C(C#N)=C(N)O2", "note": "(centres undefined)", "activity change, negative = inhibition": "inactive: -3.9%"}, {"smiles": "Cc1ccc(S(=O)(=O)c2cn(Cc3cccc(F)c3)c3cc(N4CCCC4)c(F)cc3c2=O)cc1", "activity change, negative = inhibition": "inactive: -0.928% [at 46.1 µM]"}, {"smiles": "COc1ccc(CNC(=S)NCc2ccc(Cl)cc2)cc1OC", "Potency": "inconclusive: 20 µM [inhibitor, partial curve, poor fit]"}, {"smiles": "CCOC(=O)c1c(S(=O)(=O)N2CCCC(C(=O)Nc3ccc(OCC)cc3)C2)c(C)n(C)c1C", "note": "(centres undefined)", "activity change, negative = inhibition": "inactive: 21.6% [at 46.1 µM]"}, {"smiles": "O=C(CN1C(=O)S/C(=C\\c2ccc(Cl)cc2)C1=O)NC1C=CS(=O)(=O)C1", "note": "(centres undefined)", "Potency": "inconclusive: 35.5 µM [inhibitor, partial curve, poor fit]"}, {"smiles": "Cc1cc(C)nc(NS(=O)(=O)c2ccc(NC(=O)c3cccs3)cc2)n1", "activity change, negative = inhibition": "inactive: 5.64%"}, {"smiles": "Cc1ccc(C(=O)N/N=C/c2ccc([N+](=O)[O-])s2)cc1", "Potency": "inconclusive: 7.94 µM [inhibitor, partial curve, poor fit]"}]}]}
